Test results: patent US20250340871A1
No constants are given. Whether binding was seen depends on the method and setting. Some entries that bind do so weakly or less than the wild type.

By UniProt entry, the sequences of proteins in these tests, tags left out. Residues count along the entry.
UniProt P09874, residues 2-1014: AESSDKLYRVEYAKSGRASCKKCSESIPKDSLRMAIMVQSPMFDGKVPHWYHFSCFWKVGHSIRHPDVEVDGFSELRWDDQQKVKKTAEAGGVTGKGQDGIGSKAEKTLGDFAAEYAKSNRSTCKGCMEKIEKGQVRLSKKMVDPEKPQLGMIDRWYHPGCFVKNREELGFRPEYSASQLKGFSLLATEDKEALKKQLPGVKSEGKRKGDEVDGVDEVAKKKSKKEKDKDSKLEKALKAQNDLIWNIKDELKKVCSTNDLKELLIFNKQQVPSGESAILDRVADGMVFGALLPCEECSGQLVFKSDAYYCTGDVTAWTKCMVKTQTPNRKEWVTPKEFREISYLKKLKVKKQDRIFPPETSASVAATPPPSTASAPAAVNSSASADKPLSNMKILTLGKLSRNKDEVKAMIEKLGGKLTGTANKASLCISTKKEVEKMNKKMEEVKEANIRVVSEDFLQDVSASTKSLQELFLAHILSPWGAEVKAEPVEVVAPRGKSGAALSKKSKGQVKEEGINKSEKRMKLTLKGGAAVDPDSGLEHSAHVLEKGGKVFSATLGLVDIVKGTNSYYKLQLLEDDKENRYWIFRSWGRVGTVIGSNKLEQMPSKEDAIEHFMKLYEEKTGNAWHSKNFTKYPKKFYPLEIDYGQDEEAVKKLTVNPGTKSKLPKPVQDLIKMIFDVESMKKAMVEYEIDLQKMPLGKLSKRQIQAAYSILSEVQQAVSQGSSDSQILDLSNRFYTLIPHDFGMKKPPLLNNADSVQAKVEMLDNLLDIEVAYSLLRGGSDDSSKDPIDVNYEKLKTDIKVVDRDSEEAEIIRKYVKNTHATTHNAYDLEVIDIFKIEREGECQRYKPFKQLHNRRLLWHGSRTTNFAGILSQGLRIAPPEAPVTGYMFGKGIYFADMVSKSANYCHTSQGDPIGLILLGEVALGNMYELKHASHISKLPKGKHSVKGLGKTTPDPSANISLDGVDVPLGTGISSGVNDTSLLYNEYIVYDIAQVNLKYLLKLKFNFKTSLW
UniProt P27694: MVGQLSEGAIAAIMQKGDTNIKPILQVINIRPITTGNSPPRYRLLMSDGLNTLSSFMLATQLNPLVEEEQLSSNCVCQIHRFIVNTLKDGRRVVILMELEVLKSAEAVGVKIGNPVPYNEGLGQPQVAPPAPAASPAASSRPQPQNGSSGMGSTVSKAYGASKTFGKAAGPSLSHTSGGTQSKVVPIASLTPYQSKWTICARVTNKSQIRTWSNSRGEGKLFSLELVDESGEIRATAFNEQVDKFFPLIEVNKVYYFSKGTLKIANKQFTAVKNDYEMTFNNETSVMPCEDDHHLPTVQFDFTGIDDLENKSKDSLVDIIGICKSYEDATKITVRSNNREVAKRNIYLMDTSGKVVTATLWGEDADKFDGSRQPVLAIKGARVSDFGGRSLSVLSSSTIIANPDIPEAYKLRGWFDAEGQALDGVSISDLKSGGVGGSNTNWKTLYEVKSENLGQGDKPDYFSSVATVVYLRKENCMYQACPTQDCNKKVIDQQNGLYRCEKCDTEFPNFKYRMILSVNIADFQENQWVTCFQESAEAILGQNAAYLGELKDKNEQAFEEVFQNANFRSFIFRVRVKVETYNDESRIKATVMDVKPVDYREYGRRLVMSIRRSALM
UniProt P15927: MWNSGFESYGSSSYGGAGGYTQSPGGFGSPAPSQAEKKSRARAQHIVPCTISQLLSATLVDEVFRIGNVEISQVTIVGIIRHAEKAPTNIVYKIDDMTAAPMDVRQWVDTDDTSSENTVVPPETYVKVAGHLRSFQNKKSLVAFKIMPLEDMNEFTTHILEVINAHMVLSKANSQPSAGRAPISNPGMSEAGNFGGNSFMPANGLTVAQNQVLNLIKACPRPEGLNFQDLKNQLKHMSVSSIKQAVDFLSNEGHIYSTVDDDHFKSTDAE
UniProt P46937: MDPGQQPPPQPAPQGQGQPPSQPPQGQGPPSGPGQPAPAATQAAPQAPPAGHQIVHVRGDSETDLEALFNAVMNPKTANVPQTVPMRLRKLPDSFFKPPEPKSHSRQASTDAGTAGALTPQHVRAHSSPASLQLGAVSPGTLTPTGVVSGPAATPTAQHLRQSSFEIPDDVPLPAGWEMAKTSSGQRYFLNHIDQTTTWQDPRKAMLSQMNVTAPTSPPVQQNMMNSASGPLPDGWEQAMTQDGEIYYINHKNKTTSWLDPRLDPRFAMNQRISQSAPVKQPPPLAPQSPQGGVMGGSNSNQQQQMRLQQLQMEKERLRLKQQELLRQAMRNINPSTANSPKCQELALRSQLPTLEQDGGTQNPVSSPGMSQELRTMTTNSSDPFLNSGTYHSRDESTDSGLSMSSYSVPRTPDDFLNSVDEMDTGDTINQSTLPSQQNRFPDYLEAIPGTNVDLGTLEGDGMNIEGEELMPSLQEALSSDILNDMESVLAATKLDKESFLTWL
UniProt P15976: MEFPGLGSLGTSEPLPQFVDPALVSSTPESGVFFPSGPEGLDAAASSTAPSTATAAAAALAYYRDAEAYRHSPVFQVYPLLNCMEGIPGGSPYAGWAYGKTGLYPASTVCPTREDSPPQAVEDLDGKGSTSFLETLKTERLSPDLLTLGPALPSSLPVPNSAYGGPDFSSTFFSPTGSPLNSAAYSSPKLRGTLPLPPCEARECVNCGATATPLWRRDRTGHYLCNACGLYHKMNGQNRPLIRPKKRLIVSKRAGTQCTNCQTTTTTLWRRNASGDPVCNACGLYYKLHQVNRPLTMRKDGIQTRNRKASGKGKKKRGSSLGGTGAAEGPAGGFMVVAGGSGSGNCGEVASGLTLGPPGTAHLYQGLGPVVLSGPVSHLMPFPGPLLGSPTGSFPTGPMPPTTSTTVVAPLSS

Assays:
PARP [1] = biological target: PARP (UniProt P09874); experiment: immunoprecipitation (FIG. 1b)
RPA1 [2] = biological target: RPA1 (UniProt P27694); experiment: immunoprecipitation (FIG. 1b)
RPA2 [3] = biological target: RPA2 (UniProt P15927); experiment: immunoprecipitation (FIG. 1b)
PARP [4] = biological target: PARP (UniProt P09874); experiment: immunoprecipitation (FIG. 1b legend)
RPA1 [5] = biological target: RPA1 (UniProt P27694); experiment: immunoprecipitation (FIG. 1b legend)
RPA2 [6] = biological target: RPA2 (UniProt P15927); experiment: immunoprecipitation (FIG. 1b legend)

Measured: binding

YAP (from UniProt P46937 1-504)
binds: PARP [1] | RPA1 [2] | RPA2 [3] | PARP [4] | RPA1 [5] | RPA2 [6]

GATA1 (from UniProt P15976 1-413)
binds: PARP [1] | PARP [4]
